Some entries share one result that the patent states for a list of compounds. At least one structure is not confirmed: it was looked up by name or label, or the drawing left a doubt.
System: bacteriophage T4
Assay: Phage inactivation, phage titer (PFU), T4
Type: cell-based
Settings: 10 ug/ml, 1 hour
Method: Bacteriophage Preparation and Titer. E. coli cells were grown in the standard Luria broth. The fresh E. coli culture was inoculated from an overnight culture followed by approximately three hours incubation at 37° C. to the exponential growth phase (O.D.600˜0.5). At this growth phase, the E. coli cells were collected by centrifuge and washed with Escherichia coli minimal medium (Glucose 5 g/L, Na2HPO4 6 g/L, KH2PO4 3 g/L, NH4Cl 1 g/L, NaCl 0.5 g/L, MgSO4, 0.12 g/L, CaCl2 0.01 g/L, pH 7.2) twice. The cell pellet was resuspended with minimal medium. The phage stock solutions were added into their corresponding bacterial host suspensions the phage-bacteria mixture incubated for 15 minutes at 37° C. for infection. The phage-bacteria mixture was transferred into fresh Escherichia coli minimal medium and incubated overnight for viral replication. […] The phage titer was determined by plaque forming units (PFU). […] After 6˜8 hours incubation, the plaque forming units were counted and phage solutions were diluted to 10^6˜10^7 PFU/ml with the minimal medium for further use.
Phage Inactivation. […] The viral inactivation ability was determined by phage titer as stated above and calculated by log (N0/N), where N is the PFU of the phage solution after exposure to CPEs/OPEs; N0 represents the PFU of corresponding negative control (without CPEs, OPEs or UV-irradiation). […]

Q: For C[N+](C)(C)CCCOc1ccc(C#Cc2ccc(C#Cc3ccc(OCCC[N+](C)(C)C)cc3)cc2)cc1.[I-].[I-] [EO-OPE-1 (C3, A)], which “T4 phage inactivated in the dark” value is on record?
A: Its value is “more than 90%”.
